One molecule from paper PMC9655037, “Alternation of Organ-Specific Exposure in LPS-Induced Pneumonia Mice after the Inhalation of Tetrandrine Is Governed by Metabolizing Enzyme Suppression and Lysosomal Trapping” (International Journal of Molecular Sciences, 2022) can be followed below.

Amino acid sequences for entries named in this document (tags omitted).
UniProt P08183, whole entry: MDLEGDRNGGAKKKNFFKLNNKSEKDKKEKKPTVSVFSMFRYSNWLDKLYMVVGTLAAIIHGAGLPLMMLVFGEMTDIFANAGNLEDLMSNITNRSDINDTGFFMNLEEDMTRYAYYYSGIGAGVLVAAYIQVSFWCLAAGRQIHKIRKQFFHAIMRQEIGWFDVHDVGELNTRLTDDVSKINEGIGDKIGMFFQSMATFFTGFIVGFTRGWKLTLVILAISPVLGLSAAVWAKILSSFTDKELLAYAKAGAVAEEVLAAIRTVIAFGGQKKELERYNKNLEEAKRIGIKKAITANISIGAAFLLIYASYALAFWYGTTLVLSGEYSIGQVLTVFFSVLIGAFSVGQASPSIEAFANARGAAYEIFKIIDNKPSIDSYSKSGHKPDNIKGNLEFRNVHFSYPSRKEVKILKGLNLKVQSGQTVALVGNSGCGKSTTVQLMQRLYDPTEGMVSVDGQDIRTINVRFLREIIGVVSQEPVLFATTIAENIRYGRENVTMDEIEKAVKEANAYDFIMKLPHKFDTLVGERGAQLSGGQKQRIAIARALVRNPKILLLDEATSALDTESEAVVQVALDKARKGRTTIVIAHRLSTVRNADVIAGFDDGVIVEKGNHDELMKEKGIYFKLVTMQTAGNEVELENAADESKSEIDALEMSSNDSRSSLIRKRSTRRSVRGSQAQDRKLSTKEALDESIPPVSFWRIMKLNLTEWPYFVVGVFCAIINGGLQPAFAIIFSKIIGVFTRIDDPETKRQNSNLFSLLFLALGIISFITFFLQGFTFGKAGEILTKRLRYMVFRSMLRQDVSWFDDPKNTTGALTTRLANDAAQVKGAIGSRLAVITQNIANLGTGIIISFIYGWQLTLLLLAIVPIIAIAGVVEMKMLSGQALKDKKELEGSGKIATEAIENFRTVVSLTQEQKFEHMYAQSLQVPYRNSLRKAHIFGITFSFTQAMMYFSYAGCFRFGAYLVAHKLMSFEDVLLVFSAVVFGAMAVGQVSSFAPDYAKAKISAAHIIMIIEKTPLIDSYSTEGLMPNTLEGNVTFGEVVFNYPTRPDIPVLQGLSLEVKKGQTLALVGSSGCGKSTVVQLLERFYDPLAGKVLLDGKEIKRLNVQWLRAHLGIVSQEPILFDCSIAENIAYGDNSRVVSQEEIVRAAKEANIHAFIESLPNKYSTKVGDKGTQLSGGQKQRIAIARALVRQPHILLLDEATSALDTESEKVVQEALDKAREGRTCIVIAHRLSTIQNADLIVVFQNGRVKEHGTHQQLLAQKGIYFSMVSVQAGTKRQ

Data set [1] is described as follows: Bidirectional transport in MOCK LLC-PK1 cells. As to conditions: pig. On the procedure:
(§1) MDR1 expressing LLC-PK1 cells or MOCK LLC-PK1 cells were utilized to identify whether P-gp is involved in the efflux transport across the membrane barrier. Cells were cultured as described above. Cells were seeded at a density of 2 × 10^4 in Millicell® 24-well cell culture plates with a 6.5 mm insert (0.4 µm polycarbonate membrane) from Corning (Kennebunk, ME, USA) 7 days before the experiments. On the day of the experiment, transepithelial electrical resistance (TEER) was measured to assess monolayer integrity. After washing the cells twice with HBSS, transport experiments in either the apical-to-basolateral direction (A-B) or the basolateral-to-apical direction (B-A) were conducted. […] After incubating the plates at 37 °C for 2 h, samples from the receiving and donor wells (50 μL) were taken simultaneously. All the samples were stored at −40 °C for LC-MS/MS analysis.
(§2) In the bidirectional transport study in LLC-PK1 cells, the following equations were used to calculate Papp values and the MDR1 efflux ratio.

The target of a further data set is MDR1 (P-gp) (Homo sapiens, UniProt P08183). Put plainly: Bidirectional transport in MDR1-transfected LLC-PK1 cells. On the procedure:
as §1, §2

In data set [1], `CC(C)NCC(O)COc1ccc(CC(N)=O)cc1` (stereo not drawn) [Atenolol, atenolol] had a Papp B→A at 2 h of 0.12 ± 0.01 ×10⁻⁶ cm/s. Also, the Papp A→B at 2 h at MDR1 (P-gp) was found to be 1.23 ± 0.08 ×10⁻⁶ cm/s. Further, the efflux ratio at 2 h at MDR1 (P-gp) (human, LLC-PK1) stood at 0.84.
